This is one part of the list. Most entries show no effect beyond the scatter of the controls.
What follows are targets tested with CN[C@@H]1C[C@H]2O[C@@](C)([C@@H]1OC)n1c3ccccc3c3c4c(c5c6ccccc6n2c5c31)C(=O)NC4 [staurosporine] (assay: log2 fold change of tryptic peptide abundance, ligand vs vehicle (limited proteolysis) (log2 ratio); higher = more trypsin-susceptible (destabilized)). Conditions: ligand concentration: 20 uM; sample: K562 cleared lysate; digestion: 4 min, 22 C (HT-PELSA RT4min, Orbitrap Astral).

The chains behind the UniProt entries cited, without tags or fusion partners. Where a name states a change or a piece, a line headed by the entry shows the natural chain unless it says otherwise.
UniProt Q9H4A6: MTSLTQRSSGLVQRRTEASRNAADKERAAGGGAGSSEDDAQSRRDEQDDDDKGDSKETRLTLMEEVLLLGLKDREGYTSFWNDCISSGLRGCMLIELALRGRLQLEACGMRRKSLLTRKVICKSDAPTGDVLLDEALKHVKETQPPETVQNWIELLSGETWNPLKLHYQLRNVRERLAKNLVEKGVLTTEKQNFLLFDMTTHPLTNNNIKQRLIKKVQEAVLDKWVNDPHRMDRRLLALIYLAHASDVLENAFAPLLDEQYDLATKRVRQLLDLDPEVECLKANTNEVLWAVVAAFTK
UniProt Q9H8V3: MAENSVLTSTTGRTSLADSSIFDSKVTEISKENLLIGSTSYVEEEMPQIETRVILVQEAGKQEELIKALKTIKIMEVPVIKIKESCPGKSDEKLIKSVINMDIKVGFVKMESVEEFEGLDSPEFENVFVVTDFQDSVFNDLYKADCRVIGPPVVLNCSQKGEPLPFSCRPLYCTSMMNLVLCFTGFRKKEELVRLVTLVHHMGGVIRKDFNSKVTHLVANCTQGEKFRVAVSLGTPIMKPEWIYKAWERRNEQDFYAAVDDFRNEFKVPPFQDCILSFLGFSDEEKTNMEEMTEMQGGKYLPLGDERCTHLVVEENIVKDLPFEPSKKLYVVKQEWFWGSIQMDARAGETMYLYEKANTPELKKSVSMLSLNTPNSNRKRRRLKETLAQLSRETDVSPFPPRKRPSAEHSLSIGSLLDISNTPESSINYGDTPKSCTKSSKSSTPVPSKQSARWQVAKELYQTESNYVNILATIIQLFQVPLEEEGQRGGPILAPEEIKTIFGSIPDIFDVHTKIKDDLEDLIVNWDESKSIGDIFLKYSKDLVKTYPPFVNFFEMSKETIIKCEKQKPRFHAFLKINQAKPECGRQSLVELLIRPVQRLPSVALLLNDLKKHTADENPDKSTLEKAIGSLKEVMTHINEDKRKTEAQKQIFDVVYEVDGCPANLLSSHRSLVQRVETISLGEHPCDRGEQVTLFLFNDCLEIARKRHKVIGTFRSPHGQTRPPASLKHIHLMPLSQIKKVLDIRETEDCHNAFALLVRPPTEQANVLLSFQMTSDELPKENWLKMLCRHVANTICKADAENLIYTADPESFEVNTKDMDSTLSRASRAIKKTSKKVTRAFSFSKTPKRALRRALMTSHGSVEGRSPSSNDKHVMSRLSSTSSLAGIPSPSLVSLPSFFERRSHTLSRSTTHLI
UniProt Q9H840: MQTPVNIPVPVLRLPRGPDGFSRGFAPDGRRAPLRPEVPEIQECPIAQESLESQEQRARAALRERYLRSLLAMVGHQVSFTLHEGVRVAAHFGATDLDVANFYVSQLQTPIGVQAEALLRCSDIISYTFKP
UniProt Q9NP77: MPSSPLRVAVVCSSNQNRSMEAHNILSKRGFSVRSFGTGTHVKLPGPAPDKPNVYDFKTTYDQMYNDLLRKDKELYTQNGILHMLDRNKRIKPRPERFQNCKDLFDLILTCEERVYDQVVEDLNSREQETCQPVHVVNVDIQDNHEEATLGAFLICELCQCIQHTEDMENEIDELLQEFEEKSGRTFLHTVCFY
UniProt Q9NNW5: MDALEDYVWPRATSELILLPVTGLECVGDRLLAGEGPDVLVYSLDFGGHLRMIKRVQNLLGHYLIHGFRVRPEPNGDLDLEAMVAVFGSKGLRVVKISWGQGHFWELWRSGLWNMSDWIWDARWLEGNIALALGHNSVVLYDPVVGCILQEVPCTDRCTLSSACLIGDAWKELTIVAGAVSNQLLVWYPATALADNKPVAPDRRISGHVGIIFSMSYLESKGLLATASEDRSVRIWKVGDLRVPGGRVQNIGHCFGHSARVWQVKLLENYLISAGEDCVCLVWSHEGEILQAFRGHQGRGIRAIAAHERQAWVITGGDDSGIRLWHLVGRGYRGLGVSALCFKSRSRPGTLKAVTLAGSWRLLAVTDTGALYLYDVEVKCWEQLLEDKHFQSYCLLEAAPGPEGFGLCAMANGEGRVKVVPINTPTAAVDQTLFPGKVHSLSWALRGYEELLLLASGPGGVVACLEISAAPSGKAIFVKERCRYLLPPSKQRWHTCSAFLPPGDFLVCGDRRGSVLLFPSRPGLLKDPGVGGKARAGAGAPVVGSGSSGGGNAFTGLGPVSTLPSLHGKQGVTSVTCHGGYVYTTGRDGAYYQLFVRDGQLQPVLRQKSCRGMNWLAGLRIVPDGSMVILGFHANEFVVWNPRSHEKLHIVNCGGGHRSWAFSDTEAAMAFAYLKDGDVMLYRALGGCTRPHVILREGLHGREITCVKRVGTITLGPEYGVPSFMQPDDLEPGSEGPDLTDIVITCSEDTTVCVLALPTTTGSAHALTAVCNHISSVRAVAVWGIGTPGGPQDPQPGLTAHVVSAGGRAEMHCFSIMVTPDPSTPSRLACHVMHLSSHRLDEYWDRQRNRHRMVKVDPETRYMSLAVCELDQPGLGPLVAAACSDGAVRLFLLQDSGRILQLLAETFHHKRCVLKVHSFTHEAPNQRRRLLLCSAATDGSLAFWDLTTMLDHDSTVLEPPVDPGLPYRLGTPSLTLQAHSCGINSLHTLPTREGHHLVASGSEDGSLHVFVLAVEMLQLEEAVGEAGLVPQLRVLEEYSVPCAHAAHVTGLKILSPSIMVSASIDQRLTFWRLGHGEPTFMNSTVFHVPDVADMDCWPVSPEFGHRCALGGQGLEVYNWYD
UniProt Q9H5J0: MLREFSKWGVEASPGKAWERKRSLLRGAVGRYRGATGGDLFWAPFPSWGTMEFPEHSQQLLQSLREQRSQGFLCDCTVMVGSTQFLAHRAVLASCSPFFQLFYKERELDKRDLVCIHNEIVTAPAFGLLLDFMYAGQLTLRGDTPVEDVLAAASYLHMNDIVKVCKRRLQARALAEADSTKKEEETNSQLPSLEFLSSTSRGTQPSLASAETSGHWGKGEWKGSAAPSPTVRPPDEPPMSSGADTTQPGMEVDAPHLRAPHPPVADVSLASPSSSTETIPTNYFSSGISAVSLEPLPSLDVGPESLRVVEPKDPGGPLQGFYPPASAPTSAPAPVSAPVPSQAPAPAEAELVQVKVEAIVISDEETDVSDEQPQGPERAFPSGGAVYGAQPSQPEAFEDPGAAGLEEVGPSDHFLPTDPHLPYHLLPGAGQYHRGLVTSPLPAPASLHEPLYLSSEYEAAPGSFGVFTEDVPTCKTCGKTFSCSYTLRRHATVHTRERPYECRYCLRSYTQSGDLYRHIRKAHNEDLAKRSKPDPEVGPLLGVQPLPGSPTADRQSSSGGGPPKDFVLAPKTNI
UniProt Q9H6R0: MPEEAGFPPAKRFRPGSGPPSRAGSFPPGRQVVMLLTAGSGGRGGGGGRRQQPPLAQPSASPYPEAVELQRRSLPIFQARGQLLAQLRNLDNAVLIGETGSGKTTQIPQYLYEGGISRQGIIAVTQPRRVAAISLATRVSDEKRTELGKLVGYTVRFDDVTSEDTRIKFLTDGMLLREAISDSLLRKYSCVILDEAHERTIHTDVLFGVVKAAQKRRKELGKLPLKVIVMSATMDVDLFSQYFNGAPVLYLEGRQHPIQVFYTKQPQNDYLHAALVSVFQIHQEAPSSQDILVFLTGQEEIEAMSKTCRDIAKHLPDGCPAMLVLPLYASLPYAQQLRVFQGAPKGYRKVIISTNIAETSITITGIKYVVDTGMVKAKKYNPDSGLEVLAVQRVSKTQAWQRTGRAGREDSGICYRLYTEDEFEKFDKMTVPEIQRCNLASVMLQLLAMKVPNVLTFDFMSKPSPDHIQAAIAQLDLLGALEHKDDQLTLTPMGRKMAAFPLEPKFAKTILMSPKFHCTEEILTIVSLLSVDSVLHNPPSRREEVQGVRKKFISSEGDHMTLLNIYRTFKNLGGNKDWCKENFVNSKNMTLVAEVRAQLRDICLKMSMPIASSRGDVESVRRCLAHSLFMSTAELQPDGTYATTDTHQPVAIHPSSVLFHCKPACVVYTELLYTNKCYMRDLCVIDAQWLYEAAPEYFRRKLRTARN
UniProt Q9H6V9: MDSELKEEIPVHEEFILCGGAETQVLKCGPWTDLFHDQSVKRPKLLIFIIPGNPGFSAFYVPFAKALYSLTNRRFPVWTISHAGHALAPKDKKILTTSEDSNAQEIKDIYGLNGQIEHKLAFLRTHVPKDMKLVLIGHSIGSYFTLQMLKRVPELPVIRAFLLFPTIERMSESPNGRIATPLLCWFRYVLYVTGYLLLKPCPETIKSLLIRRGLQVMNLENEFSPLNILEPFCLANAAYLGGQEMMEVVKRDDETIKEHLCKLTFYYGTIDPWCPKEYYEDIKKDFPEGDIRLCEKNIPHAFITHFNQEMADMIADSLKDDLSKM
UniProt Q9HCD5: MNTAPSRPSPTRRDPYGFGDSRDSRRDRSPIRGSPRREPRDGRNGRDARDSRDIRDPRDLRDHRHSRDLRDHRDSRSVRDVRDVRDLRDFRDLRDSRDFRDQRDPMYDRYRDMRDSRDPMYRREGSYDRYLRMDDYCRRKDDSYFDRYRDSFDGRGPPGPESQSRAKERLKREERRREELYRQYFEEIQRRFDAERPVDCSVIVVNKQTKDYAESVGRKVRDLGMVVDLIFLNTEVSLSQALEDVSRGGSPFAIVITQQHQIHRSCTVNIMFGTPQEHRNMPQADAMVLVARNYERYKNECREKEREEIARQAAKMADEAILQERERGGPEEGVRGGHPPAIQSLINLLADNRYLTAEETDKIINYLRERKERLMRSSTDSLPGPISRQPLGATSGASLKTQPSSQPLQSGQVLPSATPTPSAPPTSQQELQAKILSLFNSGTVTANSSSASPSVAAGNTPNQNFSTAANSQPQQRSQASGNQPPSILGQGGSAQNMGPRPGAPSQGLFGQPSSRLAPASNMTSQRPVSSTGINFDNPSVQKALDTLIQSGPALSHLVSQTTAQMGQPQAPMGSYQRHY
UniProt Q9H6R4: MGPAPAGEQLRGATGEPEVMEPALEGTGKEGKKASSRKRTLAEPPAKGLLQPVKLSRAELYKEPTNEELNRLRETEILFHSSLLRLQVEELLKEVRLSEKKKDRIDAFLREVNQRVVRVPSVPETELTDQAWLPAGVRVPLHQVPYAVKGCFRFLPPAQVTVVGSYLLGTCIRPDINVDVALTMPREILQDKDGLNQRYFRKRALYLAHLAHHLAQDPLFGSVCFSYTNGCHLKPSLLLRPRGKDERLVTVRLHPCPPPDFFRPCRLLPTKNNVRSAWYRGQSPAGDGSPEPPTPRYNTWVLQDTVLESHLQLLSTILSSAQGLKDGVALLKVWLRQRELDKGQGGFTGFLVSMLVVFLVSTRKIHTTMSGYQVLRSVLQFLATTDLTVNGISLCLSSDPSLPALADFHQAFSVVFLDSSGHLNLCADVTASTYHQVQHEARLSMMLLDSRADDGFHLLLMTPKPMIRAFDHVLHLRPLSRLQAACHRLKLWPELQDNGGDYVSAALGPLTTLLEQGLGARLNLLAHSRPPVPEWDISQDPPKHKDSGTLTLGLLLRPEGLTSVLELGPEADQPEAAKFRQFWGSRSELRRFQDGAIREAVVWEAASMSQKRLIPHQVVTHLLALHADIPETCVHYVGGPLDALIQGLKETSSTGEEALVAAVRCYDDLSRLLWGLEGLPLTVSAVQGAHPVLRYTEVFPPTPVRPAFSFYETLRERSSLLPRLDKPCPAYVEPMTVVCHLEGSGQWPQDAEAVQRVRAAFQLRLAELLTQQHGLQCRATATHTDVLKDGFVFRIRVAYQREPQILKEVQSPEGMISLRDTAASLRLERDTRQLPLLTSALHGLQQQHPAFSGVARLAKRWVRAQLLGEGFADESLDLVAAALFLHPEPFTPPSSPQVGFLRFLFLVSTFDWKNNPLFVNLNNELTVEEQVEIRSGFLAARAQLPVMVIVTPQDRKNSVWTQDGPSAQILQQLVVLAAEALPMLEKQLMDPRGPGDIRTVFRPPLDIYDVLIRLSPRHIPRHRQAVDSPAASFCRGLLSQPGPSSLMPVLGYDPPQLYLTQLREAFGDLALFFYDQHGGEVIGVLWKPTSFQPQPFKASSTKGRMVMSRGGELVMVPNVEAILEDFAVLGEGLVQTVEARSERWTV
UniProt Q9HB40: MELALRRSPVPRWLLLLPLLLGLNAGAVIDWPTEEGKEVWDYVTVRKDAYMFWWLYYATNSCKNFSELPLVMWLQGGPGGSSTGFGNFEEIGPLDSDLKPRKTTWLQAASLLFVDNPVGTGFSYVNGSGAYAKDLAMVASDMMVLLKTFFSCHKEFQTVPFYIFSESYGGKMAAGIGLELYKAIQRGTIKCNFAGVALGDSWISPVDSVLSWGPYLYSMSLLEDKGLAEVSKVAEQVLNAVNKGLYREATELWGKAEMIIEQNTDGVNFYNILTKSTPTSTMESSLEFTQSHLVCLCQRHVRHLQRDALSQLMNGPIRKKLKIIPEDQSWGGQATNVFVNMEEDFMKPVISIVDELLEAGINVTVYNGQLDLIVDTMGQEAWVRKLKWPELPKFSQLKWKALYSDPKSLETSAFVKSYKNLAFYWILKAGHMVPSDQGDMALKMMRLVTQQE

Target	log2 fold change
CENPJ (peptide sequence: IIELETEIEKFK, peptide start residue: 910) (UniProt Q9HC77)	0.868
AKIRIN1 (peptide sequence: LAEQYESFVK, peptide start residue: 164) (UniProt Q9H9L7)	-0.159
UniProt Q9HCS4 (peptide sequence: ESAAINQILGR, peptide start residue: 325)	-0.199
GOLPH3 (peptide sequence: AAGGGAGSSEDDAQSRR, peptide start residue: 28) (UniProt Q9H4A6)	-0.796
ECT2 (peptide sequence: SPHGQTRPPASLK, peptide start residue: 716) (UniProt Q9H8V3)	0.74
CWC22 (peptide sequence: LKDETLQPFFEGLLPR, peptide start residue: 603) (UniProt Q9HCG8)	0.312
GEMIN7 (peptide sequence: MQTPVNIPVPVLRLPR, peptide start residue: 1) (UniProt Q9H840)	-0.0462
PCIF1 (peptide sequence: QCGPHVSAAAK, peptide start residue: 344) (UniProt Q9H4Z3)	0.642
ZWILCH (peptide sequence: HHLSTVTSK, peptide start residue: 193) (UniProt Q9H900)	1.37
SSU72 (peptide sequence: SFGTGTHVK, peptide start residue: 35) (UniProt Q9NP77)	0.283
WDR6 (peptide sequence: DGQLQPVLR, peptide start residue: 598) (UniProt Q9NNW5)	-0.253
UniProt Q9H6R7 (peptide sequence: NLVEMQR, peptide start residue: 567)	-0.312
ZBTB3 (peptide sequence: QSSSGGGPPK, peptide start residue: 555) (UniProt Q9H5J0)	-0.492
UniProt Q9H8L6 (peptide sequence: PEPDSLQAR, peptide start residue: 364)	-0.0382
TMEM9B (peptide sequence: LQVQEQR, peptide start residue: 166) (UniProt Q9NQ34)	-0.0795
DHX33 (peptide sequence: FISSEGDHMTLLNIYR, peptide start residue: 552) (UniProt Q9H6R0)	0.399
UniProt Q9H6V9 (peptide sequence: IATPLLCWFR, peptide start residue: 178)	0.337
RC3H2 (peptide sequence: SVQELTIVLQR, peptide start residue: 330) (UniProt Q9HBD1)	0.484
EXOSC4 (peptide sequence: VLEAAAQAAR, peptide start residue: 213) (UniProt Q9NPD3)	0.377

Target	log2 fold change
UniProt Q9HAF1 (peptide sequence: RKQELAETLANLER, peptide start residue: 25)	0.347
RRAGC (peptide sequence: SCGHQTSASSLK, peptide start residue: 376) (UniProt Q9HB90)	0.18
IFT122 (peptide sequence: KLDSPGYAAETYLK, peptide start residue: 817) (UniProt Q9HBG6)	0.341
NCOA5 (peptide sequence: YLTAEETDKIINYLR, peptide start residue: 354) (UniProt Q9HCD5)	0.262
BRD7 (peptide sequence: VENEAEKDLQCHAPVR, peptide start residue: 97) (UniProt Q9NPI1)	0.393
NOL6 (peptide sequence: AQLPVMVIVTPQDRK, peptide start residue: 942) (UniProt Q9H6R4)	0.537
BCAS3 (peptide sequence: WVVVSTLR, peptide start residue: 419) (UniProt Q9H6U6)	-0.362
UniProt Q9H6K1 (peptide sequence: GLHGPYPFGQS, peptide start residue: 288)	0.036
WDR26 (peptide sequence: LEHPSATK, peptide start residue: 155) (UniProt Q9H7D7)	0.58
C8orf33 (peptide sequence: AALGHLAGEAAAAPGPGTPCASR, peptide start residue: 2) (UniProt Q9H7E9)	-0.313
RMI1 (peptide sequence: SIFSVHCNVPLAHDFTNKEK, peptide start residue: 400) (UniProt Q9H9A7)	-0.976
UBE2T (peptide sequence: GVFKLEVIIPERYPFEPPQIR, peptide start residue: 49) (UniProt Q9NPD8)	0.198
PHAX (peptide sequence: LGNRPEMNYK, peptide start residue: 207) (UniProt Q9H814)	0.414
SCPEP1 (peptide sequence: AGHMVPSDQGDMALK, peptide start residue: 429) (UniProt Q9HB40)	-0.178
UniProt Q9HAH7 (peptide sequence: TPGSDKERPVER, peptide start residue: 246)	0.235
NGRN (peptide sequence: GREFFDSNGNFLYRI, peptide start residue: 277) (UniProt Q9NPE2)	-0.259
MRPS30 (peptide sequence: QYENHIFVGSK, peptide start residue: 277) (UniProt Q9NP92)	-0.116
CAB39L (peptide sequence: TDDEQFADEK, peptide start residue: 313) (UniProt Q9H9S4)	0.635

As entered above:
For log2 fold change, NGRN (peptide sequence: GREFFDSNGNFLYRI, peptide start residue: 277) (UniProt Q9NPE2) shows -0.259
For log2 fold change, EXOSC4 (peptide sequence: VLEAAAQAAR, peptide start residue: 213) (UniProt Q9NPD3) shows 0.377

Source: the supplement of paper PMC12819154, “High-throughput peptide-centric local stability assay extends protein–ligand identification to membrane proteins, tissues and bacteria” (Nature Structural & Molecular Biology, 2025)
